# Source: the supplement of paper PMC12067093, “Discovery and optimisation of a covalent ligand for TRIM25 and its application to targeted protein ubiquitination” (Chemical Science, 2025)
# By UniProt entry, the sequences of proteins in these tests, tags left out. Where a name states a change or a piece, a line headed by the entry shows the natural chain unless it says otherwise.
# UniProt Q92900: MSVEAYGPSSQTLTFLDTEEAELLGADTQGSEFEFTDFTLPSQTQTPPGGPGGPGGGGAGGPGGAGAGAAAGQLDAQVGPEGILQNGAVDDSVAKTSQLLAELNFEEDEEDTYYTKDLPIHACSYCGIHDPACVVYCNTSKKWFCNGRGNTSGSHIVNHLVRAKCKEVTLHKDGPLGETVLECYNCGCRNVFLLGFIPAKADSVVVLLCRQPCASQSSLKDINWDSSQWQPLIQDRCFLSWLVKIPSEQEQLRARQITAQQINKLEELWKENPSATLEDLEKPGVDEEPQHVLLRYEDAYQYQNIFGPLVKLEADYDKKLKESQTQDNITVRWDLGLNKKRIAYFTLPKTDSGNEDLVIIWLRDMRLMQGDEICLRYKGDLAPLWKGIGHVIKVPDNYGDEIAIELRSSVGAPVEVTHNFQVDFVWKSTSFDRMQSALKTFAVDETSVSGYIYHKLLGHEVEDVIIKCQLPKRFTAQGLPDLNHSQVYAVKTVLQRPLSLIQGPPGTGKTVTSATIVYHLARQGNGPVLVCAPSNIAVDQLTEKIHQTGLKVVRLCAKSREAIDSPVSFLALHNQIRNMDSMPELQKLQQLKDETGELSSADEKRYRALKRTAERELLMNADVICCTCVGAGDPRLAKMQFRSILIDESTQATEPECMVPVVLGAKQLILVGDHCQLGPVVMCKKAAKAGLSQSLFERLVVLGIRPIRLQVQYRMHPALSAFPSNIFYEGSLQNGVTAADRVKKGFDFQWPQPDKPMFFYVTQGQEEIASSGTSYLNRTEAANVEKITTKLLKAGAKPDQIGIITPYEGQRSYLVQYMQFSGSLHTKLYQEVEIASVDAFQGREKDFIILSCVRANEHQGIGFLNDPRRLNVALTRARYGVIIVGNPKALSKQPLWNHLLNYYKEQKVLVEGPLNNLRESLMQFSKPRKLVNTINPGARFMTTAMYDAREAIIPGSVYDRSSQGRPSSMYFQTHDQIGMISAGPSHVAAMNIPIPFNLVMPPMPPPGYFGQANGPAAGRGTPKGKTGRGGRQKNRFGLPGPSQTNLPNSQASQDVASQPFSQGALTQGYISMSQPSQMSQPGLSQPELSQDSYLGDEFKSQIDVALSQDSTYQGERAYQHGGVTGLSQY
# UniProt Q96RL1: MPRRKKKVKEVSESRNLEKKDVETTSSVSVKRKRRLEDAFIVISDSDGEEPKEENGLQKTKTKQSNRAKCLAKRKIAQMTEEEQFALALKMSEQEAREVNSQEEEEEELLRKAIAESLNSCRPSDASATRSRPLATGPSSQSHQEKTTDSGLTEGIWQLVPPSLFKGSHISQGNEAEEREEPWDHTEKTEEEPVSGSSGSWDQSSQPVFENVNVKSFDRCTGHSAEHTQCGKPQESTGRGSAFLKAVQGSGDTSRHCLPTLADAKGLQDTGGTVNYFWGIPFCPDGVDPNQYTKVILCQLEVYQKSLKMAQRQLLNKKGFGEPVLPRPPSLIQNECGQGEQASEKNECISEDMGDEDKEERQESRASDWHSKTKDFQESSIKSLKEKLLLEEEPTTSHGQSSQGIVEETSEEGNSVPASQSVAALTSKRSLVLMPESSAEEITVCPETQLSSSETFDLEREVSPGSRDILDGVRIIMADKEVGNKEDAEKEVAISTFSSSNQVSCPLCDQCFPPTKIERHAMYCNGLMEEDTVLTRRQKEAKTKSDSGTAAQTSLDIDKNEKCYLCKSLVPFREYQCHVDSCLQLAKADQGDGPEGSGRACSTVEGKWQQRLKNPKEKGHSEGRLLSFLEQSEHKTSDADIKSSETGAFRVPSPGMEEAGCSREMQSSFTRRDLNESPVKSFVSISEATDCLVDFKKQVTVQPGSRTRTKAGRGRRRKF
# UniProt Q70J99: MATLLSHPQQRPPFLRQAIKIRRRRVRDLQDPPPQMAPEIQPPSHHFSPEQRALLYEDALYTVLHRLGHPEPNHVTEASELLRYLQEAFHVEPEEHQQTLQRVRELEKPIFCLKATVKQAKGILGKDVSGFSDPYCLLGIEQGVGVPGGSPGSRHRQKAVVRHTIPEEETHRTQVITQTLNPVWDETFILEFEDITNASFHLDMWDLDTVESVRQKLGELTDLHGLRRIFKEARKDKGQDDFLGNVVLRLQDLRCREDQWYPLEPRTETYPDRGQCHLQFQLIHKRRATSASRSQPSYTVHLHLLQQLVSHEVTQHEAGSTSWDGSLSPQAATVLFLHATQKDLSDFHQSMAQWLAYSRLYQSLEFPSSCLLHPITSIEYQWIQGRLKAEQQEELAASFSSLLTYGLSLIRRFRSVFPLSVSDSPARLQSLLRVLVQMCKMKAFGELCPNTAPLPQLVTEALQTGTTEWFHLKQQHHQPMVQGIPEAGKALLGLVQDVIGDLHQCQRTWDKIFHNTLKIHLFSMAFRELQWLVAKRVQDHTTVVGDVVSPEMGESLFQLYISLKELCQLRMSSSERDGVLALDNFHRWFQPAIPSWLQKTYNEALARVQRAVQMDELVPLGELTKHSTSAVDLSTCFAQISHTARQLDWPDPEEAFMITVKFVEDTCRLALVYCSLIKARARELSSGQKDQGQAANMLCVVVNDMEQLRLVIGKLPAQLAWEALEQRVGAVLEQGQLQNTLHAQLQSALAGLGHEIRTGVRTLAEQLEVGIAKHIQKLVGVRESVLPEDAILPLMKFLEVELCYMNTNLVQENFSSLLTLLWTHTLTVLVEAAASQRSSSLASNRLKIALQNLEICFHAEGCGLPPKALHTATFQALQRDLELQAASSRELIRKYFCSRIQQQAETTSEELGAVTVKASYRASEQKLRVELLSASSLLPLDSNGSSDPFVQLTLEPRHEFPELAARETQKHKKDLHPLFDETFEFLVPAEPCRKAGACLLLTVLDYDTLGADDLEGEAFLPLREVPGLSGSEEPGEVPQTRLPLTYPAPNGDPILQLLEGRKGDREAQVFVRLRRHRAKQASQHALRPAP
# UniProt O94874: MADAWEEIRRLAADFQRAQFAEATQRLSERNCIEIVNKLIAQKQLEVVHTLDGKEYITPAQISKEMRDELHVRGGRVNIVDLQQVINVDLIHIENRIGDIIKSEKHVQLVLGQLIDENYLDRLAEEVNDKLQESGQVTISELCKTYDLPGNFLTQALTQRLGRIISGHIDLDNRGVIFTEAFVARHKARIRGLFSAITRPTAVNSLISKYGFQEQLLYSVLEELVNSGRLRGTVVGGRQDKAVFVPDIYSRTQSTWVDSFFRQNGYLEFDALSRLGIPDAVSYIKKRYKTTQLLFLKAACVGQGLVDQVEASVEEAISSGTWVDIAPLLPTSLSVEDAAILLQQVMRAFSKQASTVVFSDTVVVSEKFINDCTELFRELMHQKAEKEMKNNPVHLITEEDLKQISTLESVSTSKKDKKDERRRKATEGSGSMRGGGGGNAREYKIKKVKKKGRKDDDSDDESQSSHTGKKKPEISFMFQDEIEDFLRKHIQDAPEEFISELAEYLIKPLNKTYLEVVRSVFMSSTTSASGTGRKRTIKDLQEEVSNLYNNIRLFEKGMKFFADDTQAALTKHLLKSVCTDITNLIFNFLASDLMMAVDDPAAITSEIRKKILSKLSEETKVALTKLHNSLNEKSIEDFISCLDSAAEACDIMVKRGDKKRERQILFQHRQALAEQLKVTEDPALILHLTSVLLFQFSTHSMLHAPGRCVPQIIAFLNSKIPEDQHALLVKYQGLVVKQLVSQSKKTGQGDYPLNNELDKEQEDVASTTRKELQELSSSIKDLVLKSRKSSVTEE
# UniProt P31930: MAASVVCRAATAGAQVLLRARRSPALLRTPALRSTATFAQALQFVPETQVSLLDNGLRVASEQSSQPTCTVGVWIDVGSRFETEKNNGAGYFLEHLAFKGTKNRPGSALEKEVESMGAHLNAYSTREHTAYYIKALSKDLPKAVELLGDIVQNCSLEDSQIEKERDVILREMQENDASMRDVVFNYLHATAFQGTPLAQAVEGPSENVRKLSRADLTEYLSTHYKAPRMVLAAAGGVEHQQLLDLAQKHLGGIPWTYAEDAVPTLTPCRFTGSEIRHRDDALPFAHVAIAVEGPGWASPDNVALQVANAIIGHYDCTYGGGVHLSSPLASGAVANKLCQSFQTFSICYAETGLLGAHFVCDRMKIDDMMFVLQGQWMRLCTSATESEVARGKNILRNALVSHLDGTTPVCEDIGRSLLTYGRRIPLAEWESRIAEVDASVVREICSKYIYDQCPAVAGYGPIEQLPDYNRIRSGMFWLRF
# UniProt P10746: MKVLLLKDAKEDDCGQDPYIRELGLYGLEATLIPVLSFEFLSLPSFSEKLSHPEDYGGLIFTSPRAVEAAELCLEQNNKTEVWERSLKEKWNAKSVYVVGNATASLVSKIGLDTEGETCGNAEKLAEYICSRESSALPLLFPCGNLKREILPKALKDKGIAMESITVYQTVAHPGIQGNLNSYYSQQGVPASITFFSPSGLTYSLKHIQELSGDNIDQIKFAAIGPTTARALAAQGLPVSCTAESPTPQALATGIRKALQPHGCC
# UniProt Q9Y4E8: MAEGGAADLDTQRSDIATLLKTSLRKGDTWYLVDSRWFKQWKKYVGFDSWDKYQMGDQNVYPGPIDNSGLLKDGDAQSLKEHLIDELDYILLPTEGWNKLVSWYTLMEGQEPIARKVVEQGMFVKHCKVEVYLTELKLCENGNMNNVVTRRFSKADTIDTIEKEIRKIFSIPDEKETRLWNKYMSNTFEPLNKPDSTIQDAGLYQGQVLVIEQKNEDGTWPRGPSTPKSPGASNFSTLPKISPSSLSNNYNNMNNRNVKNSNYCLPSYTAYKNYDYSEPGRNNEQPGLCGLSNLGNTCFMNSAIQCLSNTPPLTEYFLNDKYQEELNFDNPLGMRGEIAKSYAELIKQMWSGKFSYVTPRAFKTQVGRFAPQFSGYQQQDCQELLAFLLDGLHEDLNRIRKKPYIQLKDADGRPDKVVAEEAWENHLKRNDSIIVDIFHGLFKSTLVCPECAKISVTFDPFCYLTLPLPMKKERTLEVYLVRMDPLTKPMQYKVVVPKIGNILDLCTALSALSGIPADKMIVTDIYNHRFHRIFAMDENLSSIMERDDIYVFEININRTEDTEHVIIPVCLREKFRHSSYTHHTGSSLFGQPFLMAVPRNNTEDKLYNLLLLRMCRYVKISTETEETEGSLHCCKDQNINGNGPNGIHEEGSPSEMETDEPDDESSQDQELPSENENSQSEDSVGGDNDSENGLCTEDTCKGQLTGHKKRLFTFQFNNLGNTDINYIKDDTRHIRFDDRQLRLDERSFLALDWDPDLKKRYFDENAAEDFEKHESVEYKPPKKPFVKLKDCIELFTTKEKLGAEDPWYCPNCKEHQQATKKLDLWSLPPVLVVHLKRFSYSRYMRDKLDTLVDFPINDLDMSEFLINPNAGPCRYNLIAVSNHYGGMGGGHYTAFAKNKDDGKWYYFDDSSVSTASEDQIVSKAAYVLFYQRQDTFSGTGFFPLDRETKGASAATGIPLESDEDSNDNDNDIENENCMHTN
# UniProt O60701: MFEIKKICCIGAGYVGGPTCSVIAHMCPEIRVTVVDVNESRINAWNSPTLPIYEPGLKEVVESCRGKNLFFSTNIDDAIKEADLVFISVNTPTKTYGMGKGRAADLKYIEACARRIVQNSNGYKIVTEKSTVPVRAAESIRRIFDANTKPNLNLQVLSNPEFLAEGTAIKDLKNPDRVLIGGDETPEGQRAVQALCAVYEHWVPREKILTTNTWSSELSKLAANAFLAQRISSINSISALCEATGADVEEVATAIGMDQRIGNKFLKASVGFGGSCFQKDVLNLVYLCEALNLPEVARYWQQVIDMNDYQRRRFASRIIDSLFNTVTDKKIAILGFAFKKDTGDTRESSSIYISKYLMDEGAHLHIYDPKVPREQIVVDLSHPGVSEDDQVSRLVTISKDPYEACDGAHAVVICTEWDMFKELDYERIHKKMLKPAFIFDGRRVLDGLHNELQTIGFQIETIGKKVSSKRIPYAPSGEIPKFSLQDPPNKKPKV
# UniProt Q8N806: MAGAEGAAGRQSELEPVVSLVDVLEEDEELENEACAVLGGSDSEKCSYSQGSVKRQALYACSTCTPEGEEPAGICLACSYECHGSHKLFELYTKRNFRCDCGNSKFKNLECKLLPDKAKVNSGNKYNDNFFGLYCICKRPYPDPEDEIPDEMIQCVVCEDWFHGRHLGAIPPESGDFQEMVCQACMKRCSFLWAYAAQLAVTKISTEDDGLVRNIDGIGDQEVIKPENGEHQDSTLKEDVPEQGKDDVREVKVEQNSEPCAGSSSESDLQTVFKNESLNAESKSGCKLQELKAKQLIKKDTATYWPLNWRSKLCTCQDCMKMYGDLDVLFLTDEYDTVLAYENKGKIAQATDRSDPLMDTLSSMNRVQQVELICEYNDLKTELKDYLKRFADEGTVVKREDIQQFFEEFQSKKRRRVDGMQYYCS
# The other results are listed elsewhere or left out.
# Compound: CC1Cc2ccccc2N1C(=O)C1CCCN(C1)C(=O)CCl (mixture of isomers) [TRIM25 ligand 11 (diastereomer mixture)]
# Test: probe-labelled cysteine peptide fold change vs DMSO (competition) (log2 fold change); higher = less target engagement (more negative = stronger competition)
# Details: 10 µM; THP-1; incubation time: 4 h
# 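Further: competitive chemoproteomic profiling in live THP-1 cells with an iodoacetamide desthiobiotin (IA-DTB) probe, comparing probe-labelled peptide intensities in compound-treated cells against DMSO-treated controls.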
row,Target,probe-labelled cysteine peptide fold change
1,UPF1_Q92900_133_DLPIHACSYCGIHDPACVVYCNTSK (UniProt Q92900),0.0303
2,UIMC1_Q96RL1_121_AIAESLNSCRPSDASATR (UniProt Q96RL1),0.14
3,UCK2_Q9BZX2_197_PAFEEFCLPTK (UniProt Q9BZX2),0.0086
4,UNC13D_Q70J99_992_DLHPLFDETFEFLVPAEPCRK (UniProt Q70J99),-0.138
5,USP20_Q9Y2K6_8_DLCPHLDSIGEVTKEDLLLK (UniProt Q9Y2K6),-0.12
6,UPF1_Q92900_675_QLILVGDHCQLGPVVMCK (UniProt Q92900),-0.156
7,UGGT1_Q9NYU2_159_KTCESDTLEALLLTASERPKPLLFK (UniProt Q9NYU2),-0.447
8,UHRF1_Q96T88_302_SGPSCK (UniProt Q96T88),-0.075
9,USP5_P45974_838_VCASEKPPK (UniProt P45974),0.0128
10,UCHL5_Q9Y5K5_9_TGNAGEWCLMESDPGVFTELIK (UniProt Q9Y5K5),-0.21
11,UFL1_O94874_649_SIEDFISCLDSAAEACDIMVK (UniProt O94874),0.0306
12,UQCRC1_P31930_268_HLGGIPWTYAEDAVPTLTPCR (UniProt P31930),-0.129
13,URB2_Q14146_205_AFGDVTAHLLQPCLVLR (UniProt Q14146),0.0286
14,UQCRC1_P31930_380_LCTSATESEVAR (UniProt P31930),0.124
15,UHRF1BP1L_A0JNW5_618_HCPNCR (UniProt A0JNW5),-0.304
16,USP3_Q9Y6I4_362_NQENGPVCSLR (UniProt Q9Y6I4),0.00442
17,USP4_Q13107_624_LTLESLYQAVCDR (UniProt Q13107),0.0299
18,UNC13D_Q70J99_255_CREDQWYPLEPR (UniProt Q70J99),-0.0799
19,UGGT1_Q9NYU2_1475_SLPQEWLWCETWCDDASK (UniProt Q9NYU2),0.222

# Individual results from the list.
# Entry of USP4_Q13107_624_LTLESLYQAVCDR (UniProt Q13107) under probe-labelled cysteine peptide fold change: 0.0299
# Entry of UFL1_O94874_649_SIEDFISCLDSAAEACDIMVK (UniProt O94874) under probe-labelled cysteine peptide fold change: 0.0306
# Entry of USP3_Q9Y6I4_362_NQENGPVCSLR (UniProt Q9Y6I4) under probe-labelled cysteine peptide fold change: 0.00442

# Following part:

row,Target,probe-labelled cysteine peptide fold change
1,UROS_P10746_143_ESSALPLLFPCGNLKR (UniProt P10746),-0.448
2,UIMC1_Q96RL1_348_NECISEDMGDEDKEER (UniProt Q96RL1),0.0523
3,USP24_Q9UPU5_116_NDENGNCSGEGIEFPTTNLYELESR (UniProt Q9UPU5),0.0268
4,USP15_Q9Y4E8_873_DKLDTLVDFPINDLDMSEFLINPNAGPCR (UniProt Q9Y4E8),0.183
5,USP24_Q9UPU5_179_CMPEAFKK (UniProt Q9UPU5),-0.126
6,UGGT1_Q9NYU2_1024_VFMNCQSK (UniProt Q9NYU2),0.0145
7,USP15_Q9Y4E8_633+634_ISTETEETEGSLHCCK (UniProt Q9Y4E8),0.0333
8,UGDH_O60701_20_ICCIGAGYVGGPTCSVIAHMCPEIR (UniProt O60701),0.139
9,UBR7_Q8N806_374_VQQVELICEYNDLK (UniProt Q8N806),-0.0738
10,UHRF1BP1_Q6BDS2_336_LDLHICDDSQSREPGVSANR (UniProt Q6BDS2),0.232
11,UBR7_Q8N806_260_VEQNSEPCAGSSSESDLQTVFK (UniProt Q8N806),-0.0933
12,USP6_P35125_1237_ENGAGQICELADALSR (UniProt P35125),-0.192
13,UBR7_Q8N806_424_VDGMQYYCS (UniProt Q8N806),-0.00352
14,UNC45A_Q9H3U1_853_AAAGGLAMLTSMRPTLCSR (UniProt Q9H3U1),-0.0709
15,USP7_Q93009_510_HCTNAYMLVYIR (UniProt Q93009),-0.0145
16,UGDH_O60701_276_ASVGFGGSCFQK (UniProt O60701),-0.0028
17,URB1_O60287_563_AVLLQVICLYQK (UniProt O60287),-0.105
18,UBR5_O95071_691_FPGTSSNTNCQNSSGPDADPSSLLQDCR (UniProt O95071),-0.0989
